According to US20240238218A1, “[…] A PHARMACEUTICALLY ACTIVE COMPOUND AND METHOD OF PREPARATION THEREOF” (GW Research Limited, priority 2021, published 2024):

Experiments:
[1] = test system: mouse model of generalised seizure (tonic hind limb extensor convulsions); experiment: Maximal electroshock seizure threshold (MEST) test in the mouse; conditions: 2.5 mg/kg i.p., 30 min post dose
Protocol: The efficacy of the novel resorcinol according to the compound of Formula I was tested in a mouse model of generalised seizure, the maximal electroshock seizure threshold (MEST) test.
(§1) In the MEST test the ability of a drug to alter the seizure threshold current required to induce hind limb tonic extensor convulsions is measured according to an “up and down” method of shock titration (Kimball et al., 1957). An increase in seizure threshold is indicative of anti-convulsant effect.
(§2) The ability of a test compound to alter the stimulus intensity, expressed as current (mA), required to induce the presence of tonic hind limb extensor convulsions, is assessed in the MEST.
(§3) All animals were weighed at the beginning of the study and randomly assigned to treatment groups based on a mean distribution of body weight across groups.
The first animal within a treatment group was given a shock at the expected or estimated CC50 current. For subsequent animals, the current was lowered or raised depending on the convulsions outcome from the preceding animal, in intervals of 5 mA. […]
(§4) Test compound effects were also calculated as percentage change in CC50 from the vehicle control group.
(§5) Significant difference between drug-treated animals and controls were assessed according to Litchfield and Wilcoxon (1949).

[2] = test system: mouse model of generalised seizure (tonic hind limb extensor convulsions); experiment: mini-MEST (maximal electroshock seizure threshold, minimal sample sizes) test in the mouse; conditions: 2.5 mg/kg i.p., 30 min post dose
Protocol: The maximal electroshock seizure threshold (MEST) test is widely utilized preclinically to evaluate pro- or anti-convulsant properties of test compounds (Loscher et al., 1991).
as §1, §2, §3
The first animal within a treatment group was given a shock at the expected or estimated CC50 current. For subsequent animals, the current was lowered or raised depending on the convulsions outcome from the preceding animal in log scale intervals.
Data generated from each treatment group were used to calculate the CC50±SEM values for the treatment group. […]
as §4, §5

Structure (SMILES): CN1C(=O)CN=C(c2ccccc2)c2cc(Cl)ccc21 [Diazepam, diazepam, reference compound]
- CC50 +/− SEM [1]: 130.0 ± 1.1 mA
- CC50 +/− SEM ([1]; listed as diazepam): 130.0 mA
- CC50 +/− SEM [2]: 89.0 +/− 3.4 mA
- CC50 +/− SEM ([2]; listed as diazepam): 89.0 mA
